Results reported in PMC4291083, “Ex Vivo Characterization of a Novel Iodine-123-Labelled Aminomethylchroman as a Potential Agonist Ligand for SPECT Imaging of Dopamine D2/3 Receptors” (International Journal of Molecular Imaging, 2014).
The source gives many values for each of these; only a part stands here.

Experiment: Biodistribution studies in rats
Assay type: in vivo, Wistar rats
Settings: male rats
Procedure: [^123I]-1 (SA ≥ 37 MBq/nmol) was received after radiolabelling in an isotonic acetate (9% EtOH) buffer (pH 4.8). The solution was passed through a membrane filter (0.2 μm) and was diluted to the proper concentrations. Male Wistar rats (approximately 250 g body weight, obtained from Harlan/Charles River, Zeist, Netherlands) received an intravenous injection in the tail vein of approximately 3.7 MBq/0.4 mL buffer of [^123I]-1 under O2/CO2 anaesthesia. Distribution to the tissue was measured 15 min, 30 min, and 1, 2, 3, 4, and 24 h after the injection to determine the time course of uptake in several organs, including the brain. Four rats were killed at each time point via bleeding by heart puncture (to minimize contribution of blood activity) under O2/CO2 anaesthesia followed by cervical dislocation. Brain regions (cerebellum, frontal and prefrontal cortex, olfactory bulbs, pituitary, medulla with pons, midbrain, striatum, hypothalamus, hippocampus, and thalamus) and various peripheral tissues (heart, lung, liver, spleen, kidney, muscle, fat, and thymus) were quickly excised and weighted. The activity of [^123I] was assayed in a gamma counter, and data was corrected for decay and the amount of radioactivity was presented as percentage of the injected dose, multiplied by the body weight in kilograms, per gram tissue or blood. Selective uptake in the striatum was determined by calculating the ratio of radioactivity in the striatum in relation to that in the cerebellum, since the density of dopamine D2/3 receptor is negligible in this brain area in rats.

Oc1ccc2c(c1)O[C@@H](CNCc1ccc([123I])cc1)CC2 [[^123I]-1]
123I radioactivity, Heart (15 min after i.v. injection): 1.678 ± 1.142 %ID × kg/g
123I radioactivity, Heart (30 min after i.v. injection): 0.658 ± 0.141 %ID × kg/g
123I radioactivity, Heart (1 h after i.v. injection): 0.962 ± 1.043 %ID × kg/g
123I radioactivity, Heart (2 h after i.v. injection): 0.669 ± 0.348 %ID × kg/g
123I radioactivity, Heart (3 h after i.v. injection): 0.372 ± 0.265 %ID × kg/g
123I radioactivity, Heart (4 h after i.v. injection): 0.180 ± 0.044 %ID × kg/g
123I radioactivity, Heart (24 h after i.v. injection): 0.033 ± 0.005 %ID × kg/g
123I radioactivity, Liver (15 min after i.v. injection): 1.316 ± 0.773 %ID × kg/g
123I radioactivity, Liver (30 min after i.v. injection): 2.644 ± 0.361 %ID × kg/g
123I radioactivity, Liver (1 h after i.v. injection): 2.470 ± 0.449 %ID × kg/g
123I radioactivity, Liver (2 h after i.v. injection): 2.713 ± 0.487 %ID × kg/g
123I radioactivity, Liver (3 h after i.v. injection): 2.387 ± 1.400 %ID × kg/g
123I radioactivity, Liver (4 h after i.v. injection): 3.164 ± 0.824 %ID × kg/g
123I radioactivity, Liver (24 h after i.v. injection): 0.260 ± 0.064 %ID × kg/g
123I radioactivity, Lung (15 min after i.v. injection): 3.483 ± 3.534 %ID × kg/g
123I radioactivity, Lung (30 min after i.v. injection): 5.673 ± 2.526 %ID × kg/g
123I radioactivity, Lung (1 h after i.v. injection): 1.622 ± 0.848 %ID × kg/g
123I radioactivity, Lung (2 h after i.v. injection): 0.390 ± 0.302 %ID × kg/g
123I radioactivity, Lung (3 h after i.v. injection): 0.936 ± 0.762 %ID × kg/g
123I radioactivity, Lung (4 h after i.v. injection): 0.573 ± 0.307 %ID × kg/g
123I radioactivity, Lung (24 h after i.v. injection): 0.040 ± 0.005 %ID × kg/g
123I radioactivity, Muscle (1 h after i.v. injection): 0.244 ± 0.023 %ID × kg/g
123I radioactivity, Muscle (2 h after i.v. injection): 0.124 ± 0.028 %ID × kg/g
123I radioactivity, Muscle (3 h after i.v. injection): 0.119 ± 0.028 %ID × kg/g
123I radioactivity, Muscle (4 h after i.v. injection): 0.084 ± 0.041 %ID × kg/g
123I radioactivity, Muscle (24 h after i.v. injection): 0.012 ± 0.004 %ID × kg/g
123I radioactivity, Thymus (15 min after i.v. injection): 0.365 ± 0.507 %ID × kg/g
123I radioactivity, Thymus (30 min after i.v. injection): 1.776 ± 0.200 %ID × kg/g
123I radioactivity, Thymus (1 h after i.v. injection): 1.591 ± 0.169 %ID × kg/g
123I radioactivity, Thymus (2 h after i.v. injection): 1.083 ± 0.454 %ID × kg/g
123I radioactivity, Thymus (3 h after i.v. injection): 0.946 ± 0.150 %ID × kg/g
123I radioactivity, Thymus (4 h after i.v. injection): 0.815 ± 0.244 %ID × kg/g
123I radioactivity, Thymus (24 h after i.v. injection): 0.024 ± 0.001 %ID × kg/g
